This test deals with T1, ARHGAP10 (human (in A2780 cells)) (UniProt A1A4S6).
T1 sequence: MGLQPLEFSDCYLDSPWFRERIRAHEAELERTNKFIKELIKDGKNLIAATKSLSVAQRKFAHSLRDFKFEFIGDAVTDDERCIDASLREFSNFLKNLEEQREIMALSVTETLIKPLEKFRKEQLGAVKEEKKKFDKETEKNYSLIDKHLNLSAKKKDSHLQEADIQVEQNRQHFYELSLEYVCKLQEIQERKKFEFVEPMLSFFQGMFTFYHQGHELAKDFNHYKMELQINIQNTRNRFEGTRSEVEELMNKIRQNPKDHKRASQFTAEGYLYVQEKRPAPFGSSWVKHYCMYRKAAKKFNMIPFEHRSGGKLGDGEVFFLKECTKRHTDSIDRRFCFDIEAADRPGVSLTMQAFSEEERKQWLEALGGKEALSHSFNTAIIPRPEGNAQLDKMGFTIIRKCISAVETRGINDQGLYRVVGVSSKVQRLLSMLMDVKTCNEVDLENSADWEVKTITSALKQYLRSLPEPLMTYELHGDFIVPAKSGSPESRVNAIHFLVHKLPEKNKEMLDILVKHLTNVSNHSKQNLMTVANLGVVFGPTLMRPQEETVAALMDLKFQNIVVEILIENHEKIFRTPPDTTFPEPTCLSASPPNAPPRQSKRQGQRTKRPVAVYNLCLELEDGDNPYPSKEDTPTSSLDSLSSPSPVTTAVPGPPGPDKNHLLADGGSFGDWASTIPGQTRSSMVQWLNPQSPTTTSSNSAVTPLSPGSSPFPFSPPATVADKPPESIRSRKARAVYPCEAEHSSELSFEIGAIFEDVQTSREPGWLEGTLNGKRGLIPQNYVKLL
Put plainly: co-IP; anti-ARHGAP10 coupled to protein A-Sepharose beads in RIPA buffer, incubated with A2780 cell lysate at 4 °C for 2 h, washed three times with TBS (50 mmol/l Tris-HCl pH 7.4, 150 mmol/l NaCl); blot for Cdc42; control IgG.

Protein sequences, listed by entry. Tags and fused reporters are not part of them.
UniProt P60953: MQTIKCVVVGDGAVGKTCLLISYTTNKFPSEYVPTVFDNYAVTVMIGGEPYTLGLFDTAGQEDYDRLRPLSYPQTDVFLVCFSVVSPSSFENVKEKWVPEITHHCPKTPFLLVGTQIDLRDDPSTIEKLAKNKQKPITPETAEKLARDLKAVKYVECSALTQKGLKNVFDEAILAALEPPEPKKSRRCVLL

This passage reports binding results from article PMC4823924.

Results are given in words; binding and its absence hold for the method and conditions named. In cells and extracts the contact can be indirect. Some entries that bind do so weakly or less than the wild type.

On to Cdc42 (from UniProt P60953 1-191), for which the binding result is recorded as “binds”.
